Experimental data published in US20100062067A1, “COMPOSITIONS COMPRISING MACROMOLECULAR ASSEMBLIES OF LIPID AND SURFACTANT” (MALVERN COSMECEUTICS LIMITED, priority 2006, published 2010).
At least one compound was matched to its structure with a doubt left.

Details: Surf. Brij 35P 2.5%, lipid 90H 1.0%, co-surf. S LPC ca. 0.01% (as SL 80-3 0.05%), active agent 0.10%

With `Nc1cc(N2CCCCC2)nc(N)[n+]1[O-]` [Minoxidil] the “Turbidity (FNU)” value was 13.67 FNU.
